# These are yes or no findings as the source states them, for the method shown. In cells and extracts the contact can be indirect. These calls come from enrichment with a bait or labelling near it, and not all partners need be listed.
# Sequences of proteins named here, by UniProt entry; tags and fusion partners are left off.
# UniProt P51114: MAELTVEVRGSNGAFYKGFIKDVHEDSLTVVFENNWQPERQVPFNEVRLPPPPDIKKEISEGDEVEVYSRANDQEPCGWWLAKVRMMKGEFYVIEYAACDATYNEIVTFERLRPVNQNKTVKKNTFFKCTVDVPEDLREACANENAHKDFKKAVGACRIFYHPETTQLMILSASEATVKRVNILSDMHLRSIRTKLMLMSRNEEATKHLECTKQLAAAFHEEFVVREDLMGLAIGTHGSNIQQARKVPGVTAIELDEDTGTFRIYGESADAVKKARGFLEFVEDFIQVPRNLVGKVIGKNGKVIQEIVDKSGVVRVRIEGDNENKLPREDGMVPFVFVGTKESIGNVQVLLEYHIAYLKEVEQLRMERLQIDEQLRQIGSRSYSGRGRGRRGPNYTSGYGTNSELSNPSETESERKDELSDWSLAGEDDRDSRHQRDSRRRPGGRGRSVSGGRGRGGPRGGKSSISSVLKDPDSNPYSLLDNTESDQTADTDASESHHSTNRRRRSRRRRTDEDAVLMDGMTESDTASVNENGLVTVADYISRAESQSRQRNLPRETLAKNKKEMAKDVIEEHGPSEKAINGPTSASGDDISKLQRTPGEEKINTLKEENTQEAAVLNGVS
# UniProt Q9NYF8: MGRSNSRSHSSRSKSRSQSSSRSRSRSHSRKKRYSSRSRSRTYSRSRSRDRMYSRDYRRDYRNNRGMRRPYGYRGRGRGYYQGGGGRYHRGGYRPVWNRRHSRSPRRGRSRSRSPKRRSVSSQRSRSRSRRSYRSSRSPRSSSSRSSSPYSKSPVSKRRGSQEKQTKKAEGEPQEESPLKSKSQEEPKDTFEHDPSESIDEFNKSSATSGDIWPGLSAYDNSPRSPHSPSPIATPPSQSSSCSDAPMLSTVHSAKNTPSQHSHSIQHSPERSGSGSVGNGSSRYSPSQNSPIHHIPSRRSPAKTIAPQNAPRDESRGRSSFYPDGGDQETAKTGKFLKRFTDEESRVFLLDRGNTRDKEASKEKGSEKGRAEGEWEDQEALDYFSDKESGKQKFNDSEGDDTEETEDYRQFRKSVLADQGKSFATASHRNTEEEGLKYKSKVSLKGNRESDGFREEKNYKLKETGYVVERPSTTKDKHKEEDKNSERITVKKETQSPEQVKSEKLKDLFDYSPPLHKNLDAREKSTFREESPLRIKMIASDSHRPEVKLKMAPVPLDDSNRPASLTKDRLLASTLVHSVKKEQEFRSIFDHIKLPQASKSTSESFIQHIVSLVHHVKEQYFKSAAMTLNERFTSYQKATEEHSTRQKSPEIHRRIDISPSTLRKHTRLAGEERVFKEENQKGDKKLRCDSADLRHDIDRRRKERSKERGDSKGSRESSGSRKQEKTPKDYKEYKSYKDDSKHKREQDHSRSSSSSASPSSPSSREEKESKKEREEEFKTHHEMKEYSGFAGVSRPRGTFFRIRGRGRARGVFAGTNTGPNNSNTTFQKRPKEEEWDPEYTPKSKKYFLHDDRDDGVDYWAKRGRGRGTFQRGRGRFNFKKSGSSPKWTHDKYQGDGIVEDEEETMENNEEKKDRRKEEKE
# UniProt Q02880: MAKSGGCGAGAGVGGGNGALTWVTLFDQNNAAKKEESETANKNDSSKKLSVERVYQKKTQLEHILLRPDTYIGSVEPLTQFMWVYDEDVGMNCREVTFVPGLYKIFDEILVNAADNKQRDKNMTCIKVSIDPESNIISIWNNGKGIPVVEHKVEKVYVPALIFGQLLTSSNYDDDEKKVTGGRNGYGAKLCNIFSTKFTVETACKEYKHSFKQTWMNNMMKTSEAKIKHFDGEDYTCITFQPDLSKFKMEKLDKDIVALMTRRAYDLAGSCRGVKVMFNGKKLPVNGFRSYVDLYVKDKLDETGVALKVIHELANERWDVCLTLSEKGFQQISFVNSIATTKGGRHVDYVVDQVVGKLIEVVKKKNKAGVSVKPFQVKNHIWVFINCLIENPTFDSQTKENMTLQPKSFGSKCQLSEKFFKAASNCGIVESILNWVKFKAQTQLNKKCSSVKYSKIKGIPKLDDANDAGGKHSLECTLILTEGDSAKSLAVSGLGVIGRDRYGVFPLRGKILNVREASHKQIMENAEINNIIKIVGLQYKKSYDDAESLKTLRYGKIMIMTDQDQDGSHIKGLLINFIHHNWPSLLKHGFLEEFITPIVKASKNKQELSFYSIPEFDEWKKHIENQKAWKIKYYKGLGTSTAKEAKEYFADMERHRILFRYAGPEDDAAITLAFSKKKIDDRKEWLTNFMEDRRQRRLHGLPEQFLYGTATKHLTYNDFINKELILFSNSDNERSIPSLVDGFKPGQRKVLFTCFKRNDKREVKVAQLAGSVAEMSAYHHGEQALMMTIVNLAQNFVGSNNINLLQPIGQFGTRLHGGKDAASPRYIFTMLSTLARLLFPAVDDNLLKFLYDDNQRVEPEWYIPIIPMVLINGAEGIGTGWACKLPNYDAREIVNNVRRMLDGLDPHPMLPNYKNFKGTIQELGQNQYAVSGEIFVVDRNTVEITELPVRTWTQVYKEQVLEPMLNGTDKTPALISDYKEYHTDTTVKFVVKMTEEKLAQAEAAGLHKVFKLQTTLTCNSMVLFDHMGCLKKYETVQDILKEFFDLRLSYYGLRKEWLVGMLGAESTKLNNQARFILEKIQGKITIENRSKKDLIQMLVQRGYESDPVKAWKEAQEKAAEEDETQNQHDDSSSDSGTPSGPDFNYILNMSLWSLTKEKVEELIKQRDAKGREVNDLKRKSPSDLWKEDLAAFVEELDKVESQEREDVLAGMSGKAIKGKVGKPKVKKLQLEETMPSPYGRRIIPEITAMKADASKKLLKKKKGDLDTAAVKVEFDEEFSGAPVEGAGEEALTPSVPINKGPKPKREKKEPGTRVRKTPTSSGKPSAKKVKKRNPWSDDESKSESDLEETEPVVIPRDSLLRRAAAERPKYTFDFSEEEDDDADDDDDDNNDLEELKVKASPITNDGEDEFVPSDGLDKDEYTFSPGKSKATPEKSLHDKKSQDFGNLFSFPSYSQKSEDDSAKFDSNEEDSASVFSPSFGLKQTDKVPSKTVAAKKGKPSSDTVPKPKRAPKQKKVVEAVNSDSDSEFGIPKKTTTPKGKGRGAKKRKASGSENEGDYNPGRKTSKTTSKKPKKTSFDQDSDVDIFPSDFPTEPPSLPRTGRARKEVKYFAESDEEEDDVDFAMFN
# UniProt Q08945: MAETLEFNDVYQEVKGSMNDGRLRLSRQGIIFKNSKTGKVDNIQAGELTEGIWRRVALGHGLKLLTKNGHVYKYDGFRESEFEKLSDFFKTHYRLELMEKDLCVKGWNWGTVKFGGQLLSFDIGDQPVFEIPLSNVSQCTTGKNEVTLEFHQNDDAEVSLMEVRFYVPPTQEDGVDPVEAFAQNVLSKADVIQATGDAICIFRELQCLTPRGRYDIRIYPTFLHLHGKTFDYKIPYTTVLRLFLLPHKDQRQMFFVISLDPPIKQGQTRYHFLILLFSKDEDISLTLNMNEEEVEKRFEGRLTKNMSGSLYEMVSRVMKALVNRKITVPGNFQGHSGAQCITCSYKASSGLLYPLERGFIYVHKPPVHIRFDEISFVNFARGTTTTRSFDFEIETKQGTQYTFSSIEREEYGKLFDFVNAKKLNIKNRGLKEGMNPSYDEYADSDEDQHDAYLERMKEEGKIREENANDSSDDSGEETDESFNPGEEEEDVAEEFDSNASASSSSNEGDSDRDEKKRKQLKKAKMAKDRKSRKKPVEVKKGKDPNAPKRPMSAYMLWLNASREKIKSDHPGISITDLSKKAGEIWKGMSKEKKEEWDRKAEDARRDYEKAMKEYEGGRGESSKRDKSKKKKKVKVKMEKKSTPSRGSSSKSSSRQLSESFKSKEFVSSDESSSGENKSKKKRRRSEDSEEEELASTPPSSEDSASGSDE
# Molecular target: FXR1 (Fragile X-related Protein 1), endogenous (human (endogenous in H358 and KATOIII)) (UniProt P51114)
# Assay: affinity purification with mass spectrometry; ChIP-MS: formaldehyde cross-linked, micrococcal nuclease digested single-nucleosome lysate of H358 and KATOIII cells; anti-FXR1 antibody or IgG control, Protein G magnetic beads; SDS-PAGE, nanoLC-MS/MS
row,Substance,binding
1,BTF (from UniProt Q9NYF8 1-920),binds
2,TOP2B (from UniProt Q02880 1-1626) (enzyme),binds
3,FACT80 (from UniProt Q08945 1-709),binds
